Measurements as given in the supplement of paper PMC12067093, “Discovery and optimisation of a covalent ligand for TRIM25 and its application to targeted protein ubiquitination” (Chemical Science, 2025).
Some of the results follow.

Sequences of proteins named here, by UniProt entry; tags and fusion partners are left off. A change or cut given only in a name is not applied to a line headed by its entry.
UniProt P62834: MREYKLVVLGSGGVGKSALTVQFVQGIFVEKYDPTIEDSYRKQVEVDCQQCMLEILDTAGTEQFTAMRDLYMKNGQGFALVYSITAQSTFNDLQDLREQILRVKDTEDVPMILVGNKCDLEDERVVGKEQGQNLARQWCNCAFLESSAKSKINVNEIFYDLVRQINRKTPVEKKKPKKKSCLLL
UniProt P20936: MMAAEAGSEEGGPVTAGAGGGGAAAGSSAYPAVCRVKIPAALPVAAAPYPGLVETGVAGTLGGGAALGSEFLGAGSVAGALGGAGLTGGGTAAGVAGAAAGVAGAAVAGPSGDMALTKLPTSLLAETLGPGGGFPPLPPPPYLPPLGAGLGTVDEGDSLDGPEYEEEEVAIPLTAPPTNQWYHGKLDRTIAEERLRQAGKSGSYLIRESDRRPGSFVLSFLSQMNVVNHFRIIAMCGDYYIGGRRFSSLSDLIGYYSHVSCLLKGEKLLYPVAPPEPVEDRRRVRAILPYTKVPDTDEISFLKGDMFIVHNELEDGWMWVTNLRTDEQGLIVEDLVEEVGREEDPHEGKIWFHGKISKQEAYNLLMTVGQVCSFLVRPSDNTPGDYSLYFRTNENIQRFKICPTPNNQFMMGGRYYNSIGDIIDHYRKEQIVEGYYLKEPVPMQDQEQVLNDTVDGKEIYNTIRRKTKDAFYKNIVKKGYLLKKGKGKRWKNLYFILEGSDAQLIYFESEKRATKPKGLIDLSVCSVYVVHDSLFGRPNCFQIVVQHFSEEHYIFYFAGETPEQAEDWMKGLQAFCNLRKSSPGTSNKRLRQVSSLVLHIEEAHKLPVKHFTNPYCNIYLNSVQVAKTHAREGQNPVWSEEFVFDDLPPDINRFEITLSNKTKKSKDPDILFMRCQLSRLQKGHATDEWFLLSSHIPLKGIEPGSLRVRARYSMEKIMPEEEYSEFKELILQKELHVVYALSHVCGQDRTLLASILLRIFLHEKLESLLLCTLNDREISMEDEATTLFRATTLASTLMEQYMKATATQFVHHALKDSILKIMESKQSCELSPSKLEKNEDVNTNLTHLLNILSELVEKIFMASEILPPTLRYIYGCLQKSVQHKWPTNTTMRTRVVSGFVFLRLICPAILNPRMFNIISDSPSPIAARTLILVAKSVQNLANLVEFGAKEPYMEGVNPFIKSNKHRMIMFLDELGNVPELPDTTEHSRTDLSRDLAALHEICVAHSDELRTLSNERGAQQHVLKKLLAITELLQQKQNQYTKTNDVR
UniProt P18754: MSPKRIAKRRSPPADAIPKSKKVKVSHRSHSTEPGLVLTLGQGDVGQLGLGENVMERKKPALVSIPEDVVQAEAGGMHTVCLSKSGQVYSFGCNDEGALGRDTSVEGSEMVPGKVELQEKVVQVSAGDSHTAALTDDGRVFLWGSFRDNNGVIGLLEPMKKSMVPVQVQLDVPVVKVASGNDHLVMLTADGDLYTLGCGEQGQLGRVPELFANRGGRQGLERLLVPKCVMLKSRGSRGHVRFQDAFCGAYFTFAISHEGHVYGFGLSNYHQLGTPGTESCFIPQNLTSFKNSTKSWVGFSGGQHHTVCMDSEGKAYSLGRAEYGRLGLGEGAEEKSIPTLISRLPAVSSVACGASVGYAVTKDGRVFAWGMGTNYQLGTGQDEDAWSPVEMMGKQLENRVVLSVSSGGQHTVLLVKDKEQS
UniProt Q8TC12: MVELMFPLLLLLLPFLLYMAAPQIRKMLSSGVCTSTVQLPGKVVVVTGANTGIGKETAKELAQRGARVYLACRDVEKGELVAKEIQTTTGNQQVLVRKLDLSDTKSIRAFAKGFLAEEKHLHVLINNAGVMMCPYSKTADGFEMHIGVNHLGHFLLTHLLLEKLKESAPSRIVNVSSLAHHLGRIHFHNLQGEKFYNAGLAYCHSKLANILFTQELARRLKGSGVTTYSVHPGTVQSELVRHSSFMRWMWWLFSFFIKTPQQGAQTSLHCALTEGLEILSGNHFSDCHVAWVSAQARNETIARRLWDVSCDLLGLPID
UniProt Q8N0V3: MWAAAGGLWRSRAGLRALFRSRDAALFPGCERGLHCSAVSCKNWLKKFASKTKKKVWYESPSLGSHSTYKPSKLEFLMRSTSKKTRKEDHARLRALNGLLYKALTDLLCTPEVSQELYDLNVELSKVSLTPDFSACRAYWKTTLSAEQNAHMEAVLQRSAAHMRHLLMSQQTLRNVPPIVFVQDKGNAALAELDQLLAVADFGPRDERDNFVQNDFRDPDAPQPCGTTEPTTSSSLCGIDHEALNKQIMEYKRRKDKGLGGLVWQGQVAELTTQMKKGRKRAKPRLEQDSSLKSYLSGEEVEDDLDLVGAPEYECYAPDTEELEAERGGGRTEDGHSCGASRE
UniProt P10276, whole entry, looked up: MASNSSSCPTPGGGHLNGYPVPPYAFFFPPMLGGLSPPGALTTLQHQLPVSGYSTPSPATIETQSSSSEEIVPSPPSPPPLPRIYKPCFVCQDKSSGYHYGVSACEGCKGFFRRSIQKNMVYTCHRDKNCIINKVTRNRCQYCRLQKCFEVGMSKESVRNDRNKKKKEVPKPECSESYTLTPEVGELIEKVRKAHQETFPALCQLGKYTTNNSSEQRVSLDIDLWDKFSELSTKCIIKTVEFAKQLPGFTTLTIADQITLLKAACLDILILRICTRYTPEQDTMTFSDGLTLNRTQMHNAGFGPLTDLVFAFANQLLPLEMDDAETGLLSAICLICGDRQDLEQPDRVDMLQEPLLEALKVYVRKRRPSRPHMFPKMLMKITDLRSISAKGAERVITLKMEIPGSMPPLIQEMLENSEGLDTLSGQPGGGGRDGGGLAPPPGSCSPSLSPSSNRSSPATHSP
UniProt Q96PM5: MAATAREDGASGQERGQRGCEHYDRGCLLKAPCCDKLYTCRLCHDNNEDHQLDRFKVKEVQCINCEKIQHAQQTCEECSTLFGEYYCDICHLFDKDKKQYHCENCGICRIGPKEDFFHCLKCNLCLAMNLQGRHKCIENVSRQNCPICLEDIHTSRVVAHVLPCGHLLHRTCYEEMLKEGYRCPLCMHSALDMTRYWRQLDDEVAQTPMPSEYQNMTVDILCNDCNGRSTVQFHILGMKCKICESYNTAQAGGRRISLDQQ
UniProt Q9H2L5: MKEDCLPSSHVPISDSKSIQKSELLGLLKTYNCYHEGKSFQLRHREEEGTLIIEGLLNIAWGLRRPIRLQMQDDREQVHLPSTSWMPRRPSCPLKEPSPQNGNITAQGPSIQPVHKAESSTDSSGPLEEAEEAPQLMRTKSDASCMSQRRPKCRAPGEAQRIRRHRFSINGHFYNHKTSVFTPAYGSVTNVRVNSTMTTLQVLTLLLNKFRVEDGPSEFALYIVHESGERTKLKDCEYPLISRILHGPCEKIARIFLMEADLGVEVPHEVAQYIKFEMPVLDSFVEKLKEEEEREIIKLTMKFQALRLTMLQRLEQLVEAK
UniProt Q86U06: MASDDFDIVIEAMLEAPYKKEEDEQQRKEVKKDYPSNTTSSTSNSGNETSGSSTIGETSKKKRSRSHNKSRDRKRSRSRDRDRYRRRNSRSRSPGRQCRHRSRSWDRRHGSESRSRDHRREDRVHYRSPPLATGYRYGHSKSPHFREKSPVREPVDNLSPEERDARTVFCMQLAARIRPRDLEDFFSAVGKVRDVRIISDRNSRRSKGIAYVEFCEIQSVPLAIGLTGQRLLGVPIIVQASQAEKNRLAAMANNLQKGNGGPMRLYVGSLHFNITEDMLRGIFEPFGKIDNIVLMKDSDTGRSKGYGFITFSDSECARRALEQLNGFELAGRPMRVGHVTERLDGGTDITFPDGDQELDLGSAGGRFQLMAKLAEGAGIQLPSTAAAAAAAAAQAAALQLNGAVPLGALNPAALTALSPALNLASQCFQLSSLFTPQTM
UniProt P98175: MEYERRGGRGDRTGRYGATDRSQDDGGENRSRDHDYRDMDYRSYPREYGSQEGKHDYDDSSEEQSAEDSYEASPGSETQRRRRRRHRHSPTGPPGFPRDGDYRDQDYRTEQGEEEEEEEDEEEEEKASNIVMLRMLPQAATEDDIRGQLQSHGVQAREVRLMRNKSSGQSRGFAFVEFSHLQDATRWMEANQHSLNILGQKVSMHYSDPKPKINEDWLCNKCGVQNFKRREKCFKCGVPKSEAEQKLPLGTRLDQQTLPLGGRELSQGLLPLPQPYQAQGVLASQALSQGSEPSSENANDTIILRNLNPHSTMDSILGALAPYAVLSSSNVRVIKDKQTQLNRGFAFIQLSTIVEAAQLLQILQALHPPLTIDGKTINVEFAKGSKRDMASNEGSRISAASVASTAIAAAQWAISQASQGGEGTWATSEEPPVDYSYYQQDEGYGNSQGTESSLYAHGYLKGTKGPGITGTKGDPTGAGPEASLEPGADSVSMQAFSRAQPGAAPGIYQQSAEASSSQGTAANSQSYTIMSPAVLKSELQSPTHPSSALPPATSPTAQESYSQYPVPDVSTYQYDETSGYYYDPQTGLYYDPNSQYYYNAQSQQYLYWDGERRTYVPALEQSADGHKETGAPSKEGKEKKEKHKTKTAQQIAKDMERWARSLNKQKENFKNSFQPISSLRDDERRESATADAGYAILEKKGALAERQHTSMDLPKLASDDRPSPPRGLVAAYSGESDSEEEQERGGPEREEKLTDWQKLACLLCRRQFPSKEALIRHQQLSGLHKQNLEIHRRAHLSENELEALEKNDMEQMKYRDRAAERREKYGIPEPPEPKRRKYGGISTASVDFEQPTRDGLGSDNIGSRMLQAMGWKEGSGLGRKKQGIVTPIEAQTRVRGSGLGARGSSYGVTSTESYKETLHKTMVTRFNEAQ
UniProt Q15291, whole entry, looked up: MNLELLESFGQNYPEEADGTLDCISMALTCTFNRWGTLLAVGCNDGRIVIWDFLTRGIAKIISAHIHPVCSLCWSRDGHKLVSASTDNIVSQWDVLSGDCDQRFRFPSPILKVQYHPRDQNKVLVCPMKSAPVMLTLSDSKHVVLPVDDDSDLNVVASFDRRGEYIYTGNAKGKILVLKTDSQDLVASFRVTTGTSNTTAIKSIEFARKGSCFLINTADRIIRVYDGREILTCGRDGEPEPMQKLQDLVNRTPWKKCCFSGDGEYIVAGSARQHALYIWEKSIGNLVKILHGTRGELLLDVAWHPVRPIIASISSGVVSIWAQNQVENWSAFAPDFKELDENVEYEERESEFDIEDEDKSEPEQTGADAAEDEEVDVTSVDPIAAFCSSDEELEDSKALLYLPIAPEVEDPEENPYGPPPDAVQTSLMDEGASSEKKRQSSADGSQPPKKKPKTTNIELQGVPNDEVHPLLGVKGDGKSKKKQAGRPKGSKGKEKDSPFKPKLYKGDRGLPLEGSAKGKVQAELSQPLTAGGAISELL

Compound: Cc1cc(ccc1-c1ccccc1)C(=O)N1CCCN(CC1)C(=O)CCl [compound 10]
Assay: probe-labelled cysteine peptide fold change vs DMSO (competition) (log2 fold change); higher = less target engagement (more negative = stronger competition)
Details: THP-1, incubation time: 4 h
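Also: competitive profiling in live THP-1 cells: cysteine peptides tagged with an iodoacetamide desthiobiotin (IA-DTB) probe, intensity after compound treatment relative to DMSO-treated cells.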

Target: RARS2_Q5T160_479_LHSLEETFGCGYLNDFNTACLQEPQSVSILQHLLR (UniProt Q5T160)
- probe-labelled cysteine peptide fold change (10 µM): -0.037
- probe-labelled cysteine peptide fold change (50 µM): 0.0628

Target: RAP1A_P62834_139+141_QWCNCAFLESSAK (UniProt P62834)
- probe-labelled cysteine peptide fold change (10 µM): 0.175
- probe-labelled cysteine peptide fold change (50 µM): -0.552

Target: RASA1_P20936_261_FSSLSDLIGYYSHVSCLLK (UniProt P20936)
- probe-labelled cysteine peptide fold change (10 µM): 0.273
- probe-labelled cysteine peptide fold change (50 µM): 0.101

Target: RCC1_P18754_308_SWVGFSGGQHHTVCMDSEGK (UniProt P18754)
- probe-labelled cysteine peptide fold change (10 µM): 0.0815
- probe-labelled cysteine peptide fold change (50 µM): -0.0668

Target: RDH11_Q8TC12_33_MLSSGVCTSTVQLPGK (UniProt Q8TC12)
- probe-labelled cysteine peptide fold change (10 µM): -0.185
- probe-labelled cysteine peptide fold change (50 µM): 0.174

Target: RBFA_Q8N0V3_136_VSLTPDFSACR (UniProt Q8N0V3)
- probe-labelled cysteine peptide fold change (10 µM): -0.0649
- probe-labelled cysteine peptide fold change (50 µM): -0.448

Target: RARA_P10276_130_NCIINKVTR (UniProt P10276)
- probe-labelled cysteine peptide fold change (10 µM): 0.25
- probe-labelled cysteine peptide fold change (50 µM): 0.0297

Target: RCHY1_Q96PM5_90_IQHAQQTCEECSTLFGEYYCDICHLFDK (UniProt Q96PM5)
- probe-labelled cysteine peptide fold change (10 µM): 0.143
- probe-labelled cysteine peptide fold change (50 µM): -0.00379

Target: RANBP2_P49792_707_AEDIENDALSPEEQEECK (UniProt P49792)
- probe-labelled cysteine peptide fold change (10 µM): 0.0365
- probe-labelled cysteine peptide fold change (50 µM): 0.0945

Target: RASSF4_Q9H2L5_5_EDCLPSSHVPISDSK (UniProt Q9H2L5)
- probe-labelled cysteine peptide fold change (10 µM): -0.207
- probe-labelled cysteine peptide fold change (50 µM): -0.0576

Target: RBM23_Q86U06_316_GYGFITFSDSECAR (UniProt Q86U06)
- probe-labelled cysteine peptide fold change (10 µM): 0.166
- probe-labelled cysteine peptide fold change (50 µM): 0.518

Target: RBM10_P98175_222_CGVQNFK (UniProt P98175)
- probe-labelled cysteine peptide fold change (10 µM): -0.0428
- probe-labelled cysteine peptide fold change (50 µM): -0.156

Target: RBBP5_Q15291_126_VLVCPMK (UniProt Q15291)
- probe-labelled cysteine peptide fold change (10 µM): 0.136
- probe-labelled cysteine peptide fold change (50 µM): 0.0339
